In all, about 52,000 sequences went through this assay and about 210 (0.4%) were called active.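 How the source made its calls: active means gene whose silencing raises cell survival under the drug, median off-target-corrected z-score across its silencing RNAs 2 or more; inactive means the rest.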 The list shows a part of the results.

The experiment can be described thus: Resistance to Poly (ADP-Ribose) Polymerase inhibitor: Gene Identification via Genome-wide siRNA Screen. Particulars: mouse BRCA2 R2336H ES cells, olaparib, CellTiter-Glo viability; hits give high values. Put shortly: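 Genome-wide siRNA screen (3 siRNAs/gene, 20 nM) in mouse ES cells carrying hypomorphic BRCA2 R2336H; olaparib 500 nM added 48 h post-transfection, CellTiter-Glo viability 72 h later. Normalized to plate-median negative control; MAD z-scores, gene median, seed-adjusted.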
For orientation: Cellular ATP, detected with luciferase, serves as a proxy for viable cell number.
GGAAAUCUAAUGCACUUACTT against Gsdm3: the z-score was inactive: -1.15.

In the case of GGCACCAAGCUCGAUGAUGTT against Sh3gl2, the z-score was inactive: 2.76.

UGAUAUCGGAACAGAGAUGTT against Tbx15: the z-score is inactive: -0.175.

Regarding GCCUGUAAAAACCUUUUCCTT against AW544865, the z-score was inactive: -0.628.

On to GCCCGAGACCAUGGUUUGUTT against Zfyve21, for which the z-score is inactive: -1.01.

GGCCUACCAUUUCUUUAUATT against Wdr35: the z-score is inactive: 0.141.

For GGGAUGUGAGGGAAUUAACTT against B4galt3, the z-score was inactive: 0.824.

Consider “GCUCUCACCUUCAUUUGAATT against 0610009B10Rik”, for which the z-score is inactive: -0.518.

With GGCACUCAAAUUCUACACCTT against Wasf2, the z-score was inactive: 0.0365.

Take CCUCCCUGUCUAUUGUGCUTT against Slc35a2: the z-score is inactive: -0.252.

For the sequence GCCUAUUUGACGUGCAGAGTT against LOC230872, the z-score is inactive: -3.07.

With GGAAAUCAAGAAGCAGAUCTT against Epb4.1l1, the z-score was inactive: -1.57.

For GGAUCCAGAAGAGCAUCUCTT against Sap30, the z-score is inactive: -0.235.

In the case of GCUUAUUUUCGAUACAUGGTT against Ddx42, the z-score was inactive: -0.233.

Take GGUAAUACAACUGAGAACUTT against Zfp2: the z-score is inactive: 0.64.

Regarding CCCUCGUCUGAAAUGGAAATT against AK129375, the z-score is inactive: 0.0914.

On to GGGACAACAUCCCGUCAUATT against BB114266, for which the z-score is inactive: 0.433.

Turning to GCACCAUUAAGGUUGCCAATT against Nudt11, the z-score was inactive: 1.58.

Regarding GGGAACCUUGCUUUUUACATT against Olfr1141, the z-score was inactive: -1.02.

As for GCUGGUAAAGGUUACGAAGTT against Crk, the z-score was inactive: -0.134.

For GGAACGCAAGAACAGAAUGTT against Rps24, the z-score was inactive: -3.31.

Regarding GCUGGAUCCAUACAAUUUGTT against Gdi3, the z-score is inactive: -0.283.

Regarding GGACGCAAGUACAAAUUUATT against Tnxb, the z-score was inactive: 0.84.

For “GCACAUAUCGUGUCUCAAATT against 5033414D02Rik”, the z-score is inactive: 1.84.

As to GGGUAAGUAUUGAACUCAUTT against Slc10a1, the z-score was inactive: -0.137.

As to GGAAGAAGAAAGUGUUAAATT against Ythdf2, the z-score is inactive: 0.609.

GGCUCUGGCAGAAAUGGAUTT against Pex26: the z-score is inactive: 0.663.

Turning to GGAUGAUCAAGCAGAGUUUTT against Dctn2, the z-score was inactive: -1.62.

For the sequence GGAGGUGUUCAAAGACAACTT against Traf5, the z-score is inactive: -0.073.

With GCUGCCUCUCACCAAGUAUTT against Creb3l3, the z-score is inactive: -2.67.

Regarding GGGAAUCUAUUGAUGGGAUTT against Sardh, the z-score is inactive: -1.14.

As to GCAUUCAGGACCUGUGGCUTT against Olfr890, the z-score was inactive: -0.854.

Regarding GGAUGCUGAUGGAUUCUCUTT against Caskin2, the z-score was inactive: 0.209.

In the case of GGAAAAGCAGAUUGAAAUGTT against Gbp1, the z-score was inactive: -1.11.

Take GCACUUUAAGAUCAACCGGTT against Bcar3: the z-score is inactive: 0.514.

With CCGUCCCUAUGAAAUCAGCTT against Lrat, the z-score is inactive: -1.11.

Turning to “GGAAUGUUGCCAUAGUGGATT against 9530058B02Rik”, the z-score is inactive: -0.599.

As to GGACUUUUUCACUUUCAAATT against Ugt1a5, the z-score is inactive: 0.383.

“GGUAUUUUUCAACAUUCUGTT against A530087D17Rik”: the z-score is inactive: -0.648.

For GGACUGGACGACAAUUAGGTT against Brms1l, the z-score is inactive: 1.15.

Take CGGCCUGUACAGUCACUUATT against Zmynd12: the z-score is inactive: -1.63.

Consider CCUUAUUUGUCCAUAAAAGTT against Pkdrej, for which the z-score is inactive: 1.02.

On to GGAGAGAAGAGCAGAAAGATT against Nosip, for which the z-score was inactive: -0.29.

With GGCCAUAUCAUUCUUCAUUTT against Tbx18, the z-score was inactive: -0.15.

On to “GGUUAACUCCUUUUCUAGATT against 4933424B01Rik”, for which the z-score is inactive: -0.519.

As for CCAGGGAAUUAAAUUUACATT against Lrrc16, the z-score is inactive: -1.59.

As for “GGAUAUGGUUUUUAGACACTT against 2310014H19Rik”, the z-score was inactive: 1.38.

Consider “CCACUCCUUACAUGACCAATT against 1810060D16Rik”, for which the z-score is inactive: -0.487.

Regarding GGUGGGUCUGUCUUAUUUATT against Csnk2a1, the z-score is inactive: 1.4.

Consider CCAGAUCCCUGAAUUGGAATT against Myc, for which the z-score was inactive: 1.18.

Turning to GGGAGAAGAUGAGAAGAUGTT against Casp14, the z-score was inactive: 1.8.

Turning to “GGACAAAUUUGCAUAGAUUTT against 1700012B15Rik”, the z-score is inactive: 2.2.

With CGGAUGAUGCCUAAACUGATT against Hspe1, the z-score is inactive: -0.885.

As for GGAACACAAACUGAGCCUGTT against BC004044, the z-score is inactive: -0.495.

As to GCGUGAAGCACUGAGUAAGTT against Zbed3, the z-score is inactive: -0.24.

As for “GGUAGACGACAUUGAUGAATT against 1700023O11Rik”, the z-score is inactive: 1.44.

Regarding GGUGCAUGGAAAAAAAUUATT against Neil2, the z-score is inactive: 0.661.

Consider GCGGUUUCGAUUUUUAGUUTT against Pde3b, for which the z-score was inactive: 0.549.

Regarding GGACUUCUUAAUGUUUUACTT against Phf11, the z-score was inactive: -0.19.

Consider CCGUGCCAAUAGUUCUGCUTT against Dpp4, for which the z-score was inactive: 0.286.

For the sequence “GGUGUUUGUGGAAGAGGAATT against A030009B12Rik”, the z-score is inactive: -1.59.

For GGAGAUGGAGUCAGAUAAGTT against Aloxe3, the z-score was inactive: -1.87.

Turning to GGAGGAGAACUGUUUGACATT against Camk4, the z-score was inactive: -1.32.

Turning to “CGUGAUUUCAGUGAGGGUGTT against A530046H20Rik”, the z-score is inactive: -0.284.

For the sequence GGCACAAGUUGACCAAUAUTT against Rtn1, the z-score was inactive: -0.956.

For GGUGACUUUCUGUAAUCAUTT against Idb3, the z-score was inactive: -0.267.

Turning to GGAUGUAAUUUGCUCCACGTT against Jag2, the z-score is inactive: -0.361.

Turning to GCGGAAUUUGGUUUCUAUUTT against Etsrp71, the z-score was inactive: 0.539.

GCAAGUCGAGGUAGAUUGCTT against Rap1a: the z-score was inactive: 0.0966.

Take “CCAAGCCUUAAUAAGUCAATT against 6330503K22Rik”: the z-score is inactive: 0.154.

Turning to GGAGAAAGAGGAACUGGACTT against Cdc37, the z-score is inactive: 0.665.

Take CCAAAUGACUUUGGUCCUATT against Vax2: the z-score was inactive: 0.193.

On to GGAUUUGAUGGAAAUGUCATT against AA959934, for which the z-score is inactive: -0.405.

On to GGAUCUGUGCUCUGAGAAGTT against Thea, for which the z-score is inactive: -0.235.

GGAGAGUCCAUACCAGAACTT against C1qa: the z-score was inactive: -0.685.

CGACAUUAGAGAAAGUCAUTT against Hyou1: the z-score was inactive: 2.27.

As to GGAUGUCAGUGUUGCAAUGTT against Olfr954, the z-score was inactive: 0.364.

Consider GGGAGAUAUGCAAUGAAUATT against Creb5, for which the z-score is inactive: -0.788.

For the sequence GGCUACAACCAAAUCUUCATT against Papln, the z-score was inactive: -0.0281.

As to GGUUCUUUUUGAAACAGUUTT against Klhl11, the z-score was inactive: 0.594.

As to “GCAAGUCCCUUGAGGAUAGTT against 2900093B09Rik”, the z-score is inactive: -0.425.

As to “GGGUAUUCUGUACCCAGUGTT against D11Ertd636e”, the z-score is inactive: -1.22.

For the sequence “GGACCAAGCCAUCUGAGUUTT against 4930511J11Rik”, the z-score was inactive: -1.42.

GGUCUUUUACAAAAUUCCCTT against Has3: the z-score was inactive: -0.292.

As to GGUGAAAUGGAUCGUCCUCTT against Txndc3, the z-score is inactive: -0.618.

Turning to GGAGGAGAUCGUGAUCUGCTT against AI663987, the z-score is inactive: -0.595.

As for GGCUAAAACAGGAAAUCUGTT against Mip, the z-score is inactive: 0.793.

GCAUGAAGGUCGACUACGATT against Clk3: the z-score was inactive: -1.15.

Take GGUGGAAUCGUUUUGCUGUTT against Col15a1: the z-score was inactive: -0.0515.

Take GGAGAAUUUGGAGGUUUUGTT against Rbbp4: the z-score was inactive: 1.7.

Regarding GGACCAGCACAUGUGGAUUTT against Olfr547, the z-score is inactive: 0.0809.

GCCUUGGUACCAUAAUGCATT against Dmn: the z-score is inactive: -0.208.

Turning to “GGAAAUGAAGCUCAUGGAATT against 4732421G10Rik”, the z-score is inactive: 0.0275.

For “GGGAAAGAAUGGUAUUGUATT against 1110007A06Rik”, the z-score is inactive: -0.541.

GGAUGAUACCUCCAAUAACTT against Spt2: the z-score was inactive: 0.167.

GGUAAGAAUAAAGUCGCCGTT against Nfe2l2: the z-score was inactive: 0.837.

For GCUGCUUUGGGCACAAGAUTT against Nppb, the z-score is inactive: -0.413.

Consider “GCCUGAAUCUUUAAUAAUCTT against D630028G08Rik”, for which the z-score is inactive: 0.789.

Turning to GGUAUUUGAUUUCACCUUUTT against Akr1a4, the z-score is inactive: 0.904.

For GAAACUAGUCCUACUCUUUTT against Defcr, the z-score was inactive: 0.889.

CCCAAAAUUGGUCAUGAUUTT against Dncic1: the z-score was inactive: 1.09.

Turning to CCAACUACAAGACCAUCGGTT against Akp3, the z-score was inactive: -0.613.

On to “CCUAAAGAGGUGGUUGAACTT against 2810407K09Rik”, for which the z-score is inactive: 0.855.

For the sequence GGAAGGAGUAUGAAAAGAATT against Scgb3a2, the z-score is inactive: -0.343.

Source of the values: PubChem BioAssay AID1347423 (Functional Genomics Laboratory (NCATS/FGL), 2020).
